Reference: the supplement of paper PMC7052299
The list shows a part of the results. Repeats are few or missing, and single values can be far off.

Test system: Danio rerio embryo (th-expressing DA/NA neurons)
Assay: percentage of embryos with altered th expression (decrease or increase vs DMSO control) in brain region; higher = more embryos with altered dopaminergic/noradrenergic marker expression; extreme values may be limits of the assay
Conditions: treatment window: 24-72 hpf, fixed 96 hpf
Description: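 Primary screen in zebrafish embryos (AB/TL). Embryos were treated with each compound at 1, 3, 10 or 30 µM in E3/PTU with 1% DMSO from 24 to 72 hpf, washed out, and fixed at 96 hpf. th (tyrosine hydroxylase) expression was scored by whole-mount in situ hybridization per DA/NA brain region (strong decrease, decrease, normal, increase, strong increase), with 7-16 embryos per treatment and no independent replicates. The value is the percentage of scored embryos whose th expression was altered (decrease or increase) relative to DMSO controls.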

[1] = 1 µM, brain region: telencephalon
[2] = 3 µM, brain region: telencephalon
[3] = 10 µM, brain region: telencephalon
[4] = 30 µM, brain region: telencephalon

Compound | percentage of embryos with altered th expression (1 µM, brain region: DC1) | percentage of embryos with altered th expression (1 µM, brain region: DC2) | percentage of embryos with altered th expression (1 µM, brain region: DC3) | percentage of embryos with altered th expression (1 µM, brain region: DC 4,5,6) | percentage of embryos with altered th expression (1 µM, brain region: LC) | percentage of embryos with altered th expression (1 µM, brain region: MO) | percentage of embryos with altered th expression (1 µM, brain region: Pretectum) | percentage of embryos with altered th expression [1] | percentage of embryos with altered th expression (3 µM, brain region: DC1) | percentage of embryos with altered th expression (3 µM, brain region: DC2) | percentage of embryos with altered th expression (3 µM, brain region: DC3) | percentage of embryos with altered th expression (3 µM, brain region: DC 4,5,6) | percentage of embryos with altered th expression (3 µM, brain region: LC) | percentage of embryos with altered th expression (3 µM, brain region: MO) | percentage of embryos with altered th expression (3 µM, brain region: Pretectum) | percentage of embryos with altered th expression [2] | percentage of embryos with altered th expression (10 µM, brain region: DC1) | percentage of embryos with altered th expression (10 µM, brain region: DC2) | percentage of embryos with altered th expression (10 µM, brain region: DC3) | percentage of embryos with altered th expression (10 µM, brain region: DC 4,5,6) | percentage of embryos with altered th expression (10 µM, brain region: LC) | percentage of embryos with altered th expression (10 µM, brain region: MO) | percentage of embryos with altered th expression (10 µM, brain region: Pretectum) | percentage of embryos with altered th expression [3] | percentage of embryos with altered th expression (30 µM, brain region: DC1) | percentage of embryos with altered th expression (30 µM, brain region: DC2) | percentage of embryos with altered th expression (30 µM, brain region: DC3) | percentage of embryos with altered th expression (30 µM, brain region: DC 4,5,6) | percentage of embryos with altered th expression (30 µM, brain region: LC) | percentage of embryos with altered th expression (30 µM, brain region: MO) | percentage of embryos with altered th expression (30 µM, brain region: Pretectum) | percentage of embryos with altered th expression [4]
Cc1cn(CCN2CCN(c3ccccc3-c3cc(C#N)cc(C(=O)NCCCN4CCCC4)c3)CC2)c2ccccc12 | 0% | 0% | 0% | 0% | 0% | 0% | 0% | 0% | 0% | 0% | 0% | 0% | 0% | 0% | 0% | 0% | 0% | 0% | 0% | 12.5% | 0% | 0% | 0% | 0% | 0% | 0% | 0% | 0% | 0% | 0% | 0% | 0%
COc1cc2c(NC3CCN(CC4CCCCC4)CC3)nc(N3CCCN(C(C)C)CC3)nc2cc1OCCCN1CCCCC1 | 0% | 0% | 0% | 0% | 0% | 0% | 0% | 0% | 20% | 20% | 20% | 20% | 20% | 20% | 20% | 20% | 0% | 0% | 0% | 0% | 0% | 0% | 0% | 0% | 22.2% | 22.2% | 22.2% | 22.2% | 22.2% | 22.2% | 22.2% | 22.2%
